Measured values from PubChem BioAssay AID2417 (National Center for Advancing Translational Sciences (NCATS), 2010).
Screen size: about 140,000 compounds; about 4,300 (3.1%) were called active. The inconclusive results got no clear call from the source; some entries with a clear call stand among them for comparison.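 How the source made its calls: active means readout at or below -70, meaning at least 70% loss of cells showing the perinucleolar compartment, a nuclear body marking cancer cells; inconclusive means readout between -30 and a set limit; inactive means the rest.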

Assay: High Content Assay for Compounds that inhibit the Assembly of the Perinucleolar Compartment;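 further: plate controls were DMSO wells for no effect and camptothecin positive control wells for full effect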
Conditions: PC3M PTB-GFP, PNC prevalence imaging, 16 h; at 10 µM; hits give low values
Procedure, shortened: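 PC3M cells stably expressing PTB-GFP, 750–1000 cells/well, treated 16 h at 37 °C with compound (23 nl of library stock), in duplicate. After paraformaldehyde fixation and Hoechst stain, imaged at 20x; PNC prevalence scored by image analysis.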

Row | SMILES | activity change (PNC), negative = inhibition
1 | COc1ccc(CCC(=O)OCC(=O)c2ccc(C)cc2)cc1 | inconclusive: -54.4%
2 | Cc1ccc2c(c1)-c1c(ssc1=S)C(C)(C)N2C(=O)c1ccco1 | active: -100%
3 | Cc1ccc(OCCCC(=O)NC(C)c2ccccc2)cc1 (configuration not stated) | inconclusive: -49.2%
4 | CC(=O)Nc1ccc(S(=O)(=O)NCc2ccc(C)cc2)cc1 | active: -110%
5 | COc1ccccc1N1CCN(C(=O)CSc2nnc3c4ccccc4n(CC(=O)O)c3n2)CC1 | inconclusive: -46.2%
6 | Cc1ccc(/C=N/c2sc3c(c2C#N)CCCCC3)o1 | inactive: 7.44%
7 | Cc1cc(Nc2ccc(C(=O)O)cc2)n2nc(C)nc2n1 | inconclusive: -34.2%
8 | CCOC(=O)c1nn(-c2ccccc2)c(=O)c(C#N)c1C | inconclusive: -54.9%
9 | CCC(C)N1C(=O)S/C(=C/c2ccc(Sc3nc4ccccc4[nH]3)o2)C1=O (configuration not stated) | inconclusive: -75%
10 | CC1=NN(c2ccccc2)C(=O)/C1=C\N1CC(C)OC(C)C1 (configuration not stated) | inactive: 33.3%
11 | Cc1cc(C)nc(Sc2c(F)c(F)c(C(F)(F)F)c(F)c2F)n1 | inactive: 3.48%
12 | COc1ccc(Cc2nnc(NC(=O)CSc3ccc(Cl)cc3)s2)cc1OC | inactive: -10.3%
13 | CCCCOC(=O)C1=C(C)Nc2ncnn2C1c1cccc(OC)c1 (configuration not stated) | inconclusive: -56%
14 | CCCCn1c(-c2csc3c2CCC(C)C3)n[nH]c1=S (configuration not stated) | inactive: -18.8%
15 | CC(C)c1nn2c(=O)cc(O)nc2s1 | inactive: 38.6%
16 | COC(=O)C(C(=O)OC)N1C(=O)CCC1=O | inconclusive: -57.6%
17 | CC(C)CSc1nc2c(c(=O)[nH]c(=O)n2C)n1CCc1ccccc1 | inactive: 10.6%
18 | CCCn1c(NCc2cc(C)ccc2O)nc2ccccc21 | inconclusive: -31.3%
19 | CCCn1c(SCC(=O)NC(=O)Nc2ccc(C)cc2C)n[nH]c1=O | inconclusive: -46.7%
20 | CN(/N=C/c1cc([N+](=O)[O-])ccc1O)c1ccccc1 | inactive: 66%
21 | O=C(Oc1ccc(N(Cc2cccs2)C2=NS(=O)(=O)c3ccccc32)cc1)c1ccco1 | inconclusive: -30.8%
22 | Cc1ccc(NS(=O)(=O)c2ccc(CCC(=O)N3CCOCC3)cc2)cc1 | inconclusive: -38.6%
23 | O=C(NNC(=O)c1cccnc1)NC12CC3CC(CC(C3)C1)C2 | active: -80.8%

Row | SMILES | activity change (PNC), negative = inhibition
24 | N#CC(=C=[N-])c1nc2ccccc2nc1-[n+]1ccccc1 | inactive: -28.6%
25 | O=C(Nc1ccc(S(=O)(=O)N2CCc3ccccc32)cc1)c1ccc2c(c1)OCO2 | inconclusive: -48.1%
26 | Cc1ccc(OCCSc2nc(NC(C)C)nc(NC(C)C)n2)cc1 | inconclusive: -35.9%
27 | CC1(C(=O)O)CCC(C(=O)N2CCOCC2)C1(C)C (configuration not stated) | inconclusive: -42.9%
28 | COc1cccc(NS(=O)(=O)c2ccc(NC(C)=O)cc2)c1 | inactive: -29.8%
29 | COc1ccc2c(c1)c1nc3ccccc3nc1n2Cc1ccc(OC)c(OC)c1 | inconclusive: -47.9%
30 | CC1=CC(C)(C)N(S(=O)(=O)c2ccc(F)cc2)c2ccccc21 | inconclusive: -38.1%
31 | CCOCCCNC(=O)c1cn(C)c(=O)c2cc(OC)c(OC)cc12 | inconclusive: -70.2%
32 | CCOC(=O)c1[nH]c(C)c(C(=O)OCC(=O)N2CC(=O)Nc3ccccc32)c1C | inactive: 6.08%
33 | CCOc1ccc(CCNC(=O)CSCc2ccc(C)cc2)cc1OCC | inconclusive: -31.2%
34 | CC(C)C(c1nnnn1Cc1ccccc1)N1CCN(Cc2ccco2)CC1 (configuration not stated) | inconclusive: -44.5%
35 | CCOC(=O)Nc1ccc2ncn(C)c(=O)c2c1 | inconclusive: -32.6%
36 | CCOc1ccccc1NC(=O)Cn1nnc(C(=O)Nc2ccc(C)cc2)c1N | inconclusive: -47.3%
37 | N/C(=N\OC(=O)COc1ccc(Br)cc1)c1cccnc1 | inconclusive: -30.4%
38 | Cc1cc(=O)oc(C)c1C(=O)NC1CC(C)(C)NC(C)(C)C1 | inconclusive: -44.2%
39 | N#CC1=C(N)N(c2ccccc2)C2=C(C(=O)CCC2)C1c1ccsc1 (configuration not stated) | inconclusive: -60.5%
40 | Cc1cc(/C=N/NC(=O)c2ccc(CN3CCOCC3)cc2)c(C)n1-c1ccccc1 | inconclusive: -69.9%
41 | Cc1ccc(NC(=O)CSCC(=O)Nc2ncc3c(n2)CC(c2ccco2)CC3=O)cc1 (configuration not stated) | active: -85.1%
42 | CC(C)OCCCn1c(SCC(=O)N2CCc3ccccc32)nc2ccccc2c1=O | inactive: 48.2%
43 | O=C(N/N=C/c1ccco1)Nc1ccccc1 | inconclusive: -72%
44 | CCOc1nc(-c2ccccc2)ccc1-c1noc(-c2ccco2)n1 | active: -100%
45 | C/C(=N\NC(=S)NC(C)C)c1ccc2c(c1)OCCO2 | inconclusive: -53%
46 | O=C(NCCNS(=O)(=O)c1ccccc1Cl)c1cc(OCC(F)(F)F)ccc1OCC(F)(F)F | inactive: 19.7%

Row | SMILES | activity change (PNC), negative = inhibition
47 | Cc1ccc(CCC(=O)Nc2nccs2)o1 | inactive: 43.8%
48 | O=C(COc1ccccc1)NC(=S)Nc1cccc([N+](=O)[O-])c1 | inactive: -0.402%
49 | CC(=O)c1ccccc1OC(=O)c1ccco1 | inconclusive: -30.4%
50 | COc1ccc(NC(=O)CSc2nc3ccccc3n2-c2ccccc2)c([N+](=O)[O-])c1 | inconclusive: -61.9%
51 | CSc1nc(N(C)NC(=O)c2cccc(C)c2)c2ccccc2n1 | inconclusive: -61.9%
52 | Cc1nc2cc(NC(=O)CCS(=O)(=O)c3ccccc3)ccc2s1 | inactive: 12.1%
53 | COc1cc(OC)cc(C(=O)Nc2nnc(NC(=S)Nc3ccccc3)s2)c1 | active: -100%
54 | COC(=O)C1=C(C)N(Cc2ccccc2)C(=O)N[C@H]1c1ccccc1 | inactive: 40.5%
55 | O=C1CCCC2=C1C(c1ccc(Cl)cc1)N1C(=O)CCSC1=N2 (configuration not stated) | active: -100%
56 | Cc1ccc(C2(C)NC(=O)N(CC(=O)NCCC3=CCCCC3)C2=O)cc1 (configuration not stated) | inactive: 2.88%
57 | c1ccc(CCNc2nc(-c3cccnc3)cs2)cc1 | inconclusive: -35.9%
58 | O=C(CCN1C(=O)CSC1=O)Nc1ccc(Br)cc1 | active: -100%
59 | O=C(Cn1nnc(-c2ccccc2Cl)n1)N/N=C/c1ccc(-c2cccc(Cl)c2)o1 | inconclusive: -32.6%
60 | O=C(CN1CCc2[nH]c3ccccc3c2C1)N1CCCCC1 | inconclusive: -47.8%
61 | COc1ccc2oc(=O)c(C(=O)N3CCc4ccccc43)cc2c1 | inconclusive: -43.1%
62 | Cc1ccc(Cl)cc1N(CC(=O)NC1CCCCC1)S(C)(=O)=O | inconclusive: -59.2%
63 | Cc1ccnc(SCC(=O)c2cccc([N+](=O)[O-])c2)n1 | inactive: -28.6%
64 | N=C1N(/N=C/c2ccccc2)C(=Nc2ccccc2)C(=S)N1c1ccccc1 | active: -100%
65 | CCOc1ccccc1N(CC(=O)O)S(=O)(=O)c1ccccc1 | inconclusive: -45.9%
66 | CCN(CC)S(=O)(=O)c1ccc(NC(=O)CSc2ncnc3ccccc23)cc1 | inconclusive: -39.3%
67 | CCN(CC)c1ccc(/C=N/N2CCOCC2)cc1 | inactive: 11.8%
68 | CCN1C(=O)/C(=C\c2ccc(F)cc2)N=C1SCC(=O)NCc1ccco1 | inconclusive: -33.4%
69 | O=c1c(-c2ccccc2)c(O)nc2ccccn12 | inconclusive: -38.7%

A second format for some results above:
COc1ccc(NC(=O)CSc2nc3ccccc3n2-c2ccccc2)c([N+](=O)[O-])c1
  activity change (PNC), negative = inhibition: inconclusive: -61.9%
Cc1nc2cc(NC(=O)CCS(=O)(=O)c3ccccc3)ccc2s1
  activity change (PNC), negative = inhibition: inactive: 12.1%
COC(=O)C1=C(C)N(Cc2ccccc2)C(=O)N[C@H]1c1ccccc1
  activity change (PNC), negative = inhibition: inactive: 40.5%
COc1ccc2oc(=O)c(C(=O)N3CCc4ccccc43)cc2c1
  activity change (PNC), negative = inhibition: inconclusive: -43.1%

Next records follow.

Row | SMILES | activity change (PNC), negative = inhibition
70 | CCOc1ccccc1NC(=O)CSc1nnc(-c2cnccn2)n1CC | inconclusive: -78.7%
71 | CC(=O)Nc1ccc(NC(=O)c2ccc(NS(=O)(=O)c3cc(C(C)(C)C)cc(C)c3C)cc2)cc1 | active: -89.4%
72 | Cc1ccc(C(=O)NC2CCN(C(=O)N3CCOCC3)CC2)cc1 | inconclusive: -59.7%
73 | c1ccc(Cn2nnc3c(N4CCc5ccccc54)ncnc32)cc1 | inconclusive: -51%
74 | O=C(O)CSc1nnc(Cn2c(=O)sc3ccccc32)n1-c1cccc(Cl)c1 | inconclusive: -34.9%
75 | CC1CCCC(NC(=O)c2cn(C)c3ccc(S(=O)(=O)N4CCCC4)cc3c2=O)C1C (configuration not stated) | inactive: 45.9%
76 | O=C(NCCOC(=O)C1COc2ccccc2O1)c1cccnc1 (configuration not stated) | inconclusive: -37.4%
77 | CCc1cc2c(=O)c(-c3nc4ccccc4n3C)c(COCC(=O)O)oc2cc1OC(=O)C(C)(C)C | inconclusive: -44.3%
78 | CCN(CC)CC#CCOC(=O)C(O)(c1ccccc1)C1CCCCC1 (configuration not stated) | inconclusive: -65.2%
79 | CC(=O)Nc1ccc(Oc2cnc3ccccc3n2)cc1 | inconclusive: -50.4%
80 | O=C(NC1CC1)c1cccc(Nc2ccc(-c3ccc4c(c3)OCCO4)nn2)c1 | inactive: 5.9%
81 | CCOC(=O)CCCc1c[nH]c2ccccc12 | inactive: 79.7%
82 | O=C(NC12CC3CC(CC(C3)C1)C2)c1ccc(-c2ccc(Br)cc2)o1 | inactive: -28.5%
83 | CCC(c1nnnn1Cc1ccccc1)N1CCN(C(=O)c2ccco2)CC1 (configuration not stated) | inconclusive: -30.9%
84 | Nc1c(NCc2ccccc2F)c(=O)[nH]c(=O)n1Cc1ccccc1 | inactive: -10.4%
85 | CCOC(=S)N/C(=N\S(=O)(=O)c1ccccc1)c1ccccc1 | active: -100%
86 | O=C(c1c(F)cccc1F)N(Cc1ccccn1)C1CC1 | inconclusive: -42.6%
87 | CC1=NN(C(=O)c2cc(C)nn2C)C(O)(C(F)(F)F)C1 (configuration not stated) | inactive: 8.87%
88 | Cc1nc(S/C(=C/c2ccc(-c3ccc(Cl)cc3)o2)C(=O)O)n[nH]1 | inconclusive: -37.2%
89 | CCN1C(=O)CC(N2CCC(Nc3ccc(F)cc3)CC2)C1=O (configuration not stated) | inconclusive: -40.6%
90 | CC(=O)N1CCN(c2ccc(NCc3ccc(F)cc3)cc2)CC1 | inconclusive: -37.9%
91 | CCCc1nnc(SCC(=O)Nc2ccc(OCC)cc2)n1N | inconclusive: -76.7%
92 | COc1ccc(/C=N/Nc2ncnc3sc(C)c(C)c23)cc1 | inconclusive: -75.3%
